Source: PubChem BioAssay AID1259425 (University of Nebraska Medical Center, 2018)
Assay: 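Seek colon cancer weak points whose silencing resembles KSR1 loss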 (primary screen). Cell system: HCT116 human colon cancer cells. Reagents: siRNA pool against human genes, 50 nM siRNA. Measured: 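mRNA of six signature genes measured together by branched-DNA assay after 50 nM siRNA pool, blank removed, divided by geometric mean of two housekeeping genes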. Scale: BNIP3L mRNA: higher = more BNIP3L transcript after knockdown; NDRG1 mRNA: higher = more NDRG1 transcript after knockdown; BNIP3 mRNA: higher = more BNIP3 transcript after knockdown; ALDOC mRNA: higher = more ALDOC transcript after knockdown; ACSL5 mRNA: higher = more ACSL5 transcript after knockdown.
In all, the deposit lists about 14,000 reagents; below is an unselected part. Reagents against one gene are numbered here. No sequences are given here. Not given: the time to read-out.

| gene | reagent | BNIP3L mRNA, set 1 | NDRG1 mRNA, set 1 | BNIP3 mRNA, set 1 | ALDOC mRNA, set 1 | ACSL5 mRNA, set 1 |
| --- | --- | --- | --- | --- | --- | --- |
| THY1 | 1 | 0.0786 | 0.419 | 0.342 | 0.035 | 0.139 |
| FUT6 | 1 | 0.175 | 0.209 | 0.315 | 0.0498 | 0.071 |
| KCNIP4 | 1 | 0.0929 | 0.115 | 0.284 | 0.0151 | 0.171 |
| NPRL2 | 1 | 0.0991 | 0.0906 | 0.284 | 0.0429 | 0.122 |
| FOXRED1 | 1 | 0.139 | 0.31 | 0.349 | 0.0395 | 0.366 |
| LPIN1 | 1 | 0.147 | 0.136 | 0.312 | 0.0124 | 0.183 |
| MTF1 | 1 | 0.0931 | 0.0775 | 0.259 | 0.0229 | 0.073 |
| RPS6KA4 | 1 | 0.121 | 0.158 | 0.342 | 0.0277 | 0.408 |
| ZDHHC14 | 1 | 0.138 | 0.11 | 0.358 | 0.0585 | 0.175 |
| CSTPP1 | 1 | 0.0846 | 0.136 | 0.14 | 0.0144 | 0.189 |
| POFUT2 | 1 | 0.0689 | 0.136 | 0.256 | 0.0208 | 0.0348 |
| RPS2P45 | 1 | 0.174 | 0.271 | 0.256 | 0.0194 | 0.19 |
| PLEKHG6 | 1 | 0.0997 | 0.504 | 0.193 | 0.0135 | 0.114 |
| TOP6BL | 1 | 0.114 | 0.206 | 0.445 | 0.0438 | 0.144 |
| MRPS5 | 1 | 0.0987 | 0.0789 | 0.246 | 0.0324 | 0.147 |
| CEACAM4 | 1 | 0.09 | 0.18 | 0.252 | 0.0381 | 0.208 |
| MAST3 | 1 | 0.0655 | 0.454 | 0.389 | 0.0121 | 0.193 |
| TMEM165 | 1 | 0.146 | 0.884 | 0.515 | 0.0224 | 0.442 |
| DIAPH1 | 1 | 0.077 | 0.479 | 0.291 | 0.0251 | 0.27 |
| RPL13A | 1 | 0.0907 | 0.24 | 0.258 | 0.0221 | 0.123 |
| GART | 1 | 0.151 | 0.35 | 0.285 | 0.0395 | 0.212 |
| HSD3B1 | 1 | 0.1 | 0.0212 | 0.371 | 0.021 | 0.0684 |
| NUDT11 | 1 | 0.104 | 0.268 | 0.316 | 0.0523 | 0.0605 |
| RHCG | 1 | 0.117 | 0.26 | 0.358 | 0.0194 | 0.124 |
| RASGRF2 | 1 | 0.0791 | 0.137 | 0.212 | 0.00388 | 0.269 |
| MAFG | 1 | 0.117 | 0.061 | 0.224 | 0.0161 | 0.114 |
| MAFG | 2 | 0.068 | 0.384 | 0.175 | 0.0148 | 0.222 |
| ZNF639 | 1 | 0.168 | 0.084 | 0.276 | 0.0426 | 0.159 |
| PRSS22 | 1 | 0.0954 | 0.194 | 0.217 | 0.0118 | 0.212 |
| KCNH1 | 1 | 0.0817 | 0.431 | 0.294 | 0.0266 | 0.242 |
| FOXD2 | 1 | 0.147 | 0.22 | 0.397 | 0.0193 | 0.305 |
| ZNF592 | 1 | 0.141 | 0.29 | 0.558 | 0.077 | 0.188 |
| ITGA3 | 1 | 0.135 | 0.134 | 0.23 | 0.035 | 0.133 |
| BCS1L | 1 | 0.16 | 0.293 | 0.203 | 0.00653 | 0.343 |
| SVEP1 | 1 | 0.268 | 0.108 | 0.437 | 0.0858 | 0.159 |
| MSMB | 1 | 0.0757 | 0.194 | 0.222 | 0.0365 | 0.0883 |
| NAP1L3 | 1 | 0.121 | 0.17 | 0.2 | 0.022 | 0.314 |
| FKBP2 | 1 | 0.0978 | 0.185 | 0.293 | 0.0244 | 0.168 |
| ZFP36L2 | 1 | 0.125 | 0.568 | 0.342 | 0.065 | 0.142 |
| SHROOM4 | 1 | 0.251 | 0.114 | 0.489 | 0.0685 | 0.222 |
| TBC1D10B | 1 | 0.149 | 0.271 | 0.449 | 0.0704 | 0.148 |
| EXOC6B | 1 | 0.0843 | 0.737 | 0.35 | 0.0279 | 0.164 |
| PDGFRL | 1 | 0.0523 | 0.064 | 0.293 | 0.0213 | 0.132 |
| SH3BP5L | 1 | 0.163 | 1.11 | 0.467 | 0.0614 | 0.376 |
| SNX25 | 1 | 0.209 | 0.222 | 0.585 | 0.0333 | 0.385 |
| B4GALT4 | 1 | 0.0751 | 0.393 | 0.484 | 0.0149 | 0.0829 |
| KCNAB3 | 1 | 0.0589 | 0.116 | 0.239 | 0.0107 | 0.0959 |
| FGF10 | 1 | 0.0853 | 0.14 | 0.275 | 0.0339 | 0.141 |
| CALM2 | 1 | 0.279 | 0.088 | 0.288 | 0.0275 | 0.23 |
| DLGAP5 | 1 | 0.0595 | 0.102 | 0.292 | 0.00997 | 0.182 |
| SIGLEC7 | 1 | 0.109 | 0.095 | 0.336 | 0.0297 | 0.139 |
| PCDHA9 | 1 | 0.097 | 0.123 | 0.47 | 0.0138 | 0.0916 |
| ASNSD1 | 1 | 0.0983 | 0.206 | 0.366 | 0.0238 | 0.111 |
| GPSM2 | 1 | 0.165 | 0.362 | 0.397 | 0.0208 | 0.162 |
| FAT2 | 1 | 0.115 | 0.312 | 0.375 | 0.0388 | 0.154 |
| UHMK1 | 1 | 0.0694 | 0.053 | 0.315 | 0.013 | 0.252 |
| F9 | 1 | 0.065 | 0.0847 | 0.298 | 0.0134 | 0.159 |
| SUCLG2 | 1 | 0.279 | 0.286 | 0.343 | 0.019 | 0.143 |
| AGGF1 | 1 | 0.0753 | 0.0921 | 0.293 | 0.00548 | 0.16 |
| RHBDD2 | 1 | 0.174 | 0.0992 | 0.269 | 0.0483 | 0.297 |
| MEGF6 | 1 | 0.2 | 0.175 | 0.309 | 0.0691 | 0.122 |
| LAP3 | 1 | 0.0869 | 0.29 | 0.164 | 0.0194 | 0.268 |
| ZNF205 | 1 | 0.0739 | 0.244 | 0.26 | 0.0311 | 0.102 |

Part of the list above, reduced to “NDRG1 mRNA, set 1”:
CSTPP1: 0.136
POFUT2: 0.136
RPS2P45: 0.271
PLEKHG6: 0.504
TOP6BL: 0.206
MRPS5: 0.0789
CEACAM4: 0.18
MAST3: 0.454
TMEM165: 0.884
DIAPH1: 0.479
